From the supplement of paper PMC10849652
The other results are listed elsewhere or left out.

The chains behind the UniProt entries cited, without tags or fusion partners. Where a name states a change or a piece, a line headed by the entry shows the natural chain unless it says otherwise.
UniProt Q9BTV4: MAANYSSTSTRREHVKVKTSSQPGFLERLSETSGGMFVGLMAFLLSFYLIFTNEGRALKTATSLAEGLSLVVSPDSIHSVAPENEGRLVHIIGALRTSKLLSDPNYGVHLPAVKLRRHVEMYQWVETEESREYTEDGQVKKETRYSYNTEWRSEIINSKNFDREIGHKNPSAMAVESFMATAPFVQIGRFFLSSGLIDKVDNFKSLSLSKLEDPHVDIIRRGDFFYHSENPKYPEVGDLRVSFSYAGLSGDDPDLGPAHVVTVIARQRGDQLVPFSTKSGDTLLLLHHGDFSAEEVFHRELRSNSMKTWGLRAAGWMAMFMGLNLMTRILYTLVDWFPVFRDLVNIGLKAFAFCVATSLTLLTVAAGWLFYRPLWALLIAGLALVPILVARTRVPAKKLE
UniProt P19438, whole entry, looked up: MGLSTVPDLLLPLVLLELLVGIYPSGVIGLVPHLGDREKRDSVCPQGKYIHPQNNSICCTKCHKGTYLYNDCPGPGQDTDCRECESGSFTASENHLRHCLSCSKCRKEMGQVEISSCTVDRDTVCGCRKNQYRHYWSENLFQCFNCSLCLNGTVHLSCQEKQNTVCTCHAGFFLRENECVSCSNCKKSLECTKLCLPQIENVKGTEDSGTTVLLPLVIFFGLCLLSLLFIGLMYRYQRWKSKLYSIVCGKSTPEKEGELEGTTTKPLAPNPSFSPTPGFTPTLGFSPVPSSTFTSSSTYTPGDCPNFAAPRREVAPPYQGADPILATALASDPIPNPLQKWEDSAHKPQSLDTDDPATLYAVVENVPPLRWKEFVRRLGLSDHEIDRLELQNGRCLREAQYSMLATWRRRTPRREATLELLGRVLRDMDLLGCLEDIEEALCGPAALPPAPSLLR
UniProt Q9H3N1: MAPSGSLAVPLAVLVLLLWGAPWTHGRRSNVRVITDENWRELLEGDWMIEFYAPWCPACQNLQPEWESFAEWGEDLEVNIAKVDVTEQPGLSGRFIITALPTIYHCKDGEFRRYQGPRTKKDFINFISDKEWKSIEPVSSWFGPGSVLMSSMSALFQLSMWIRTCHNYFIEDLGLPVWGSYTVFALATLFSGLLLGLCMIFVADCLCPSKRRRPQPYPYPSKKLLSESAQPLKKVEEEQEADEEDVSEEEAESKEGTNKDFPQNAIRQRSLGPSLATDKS
UniProt Q9NR96: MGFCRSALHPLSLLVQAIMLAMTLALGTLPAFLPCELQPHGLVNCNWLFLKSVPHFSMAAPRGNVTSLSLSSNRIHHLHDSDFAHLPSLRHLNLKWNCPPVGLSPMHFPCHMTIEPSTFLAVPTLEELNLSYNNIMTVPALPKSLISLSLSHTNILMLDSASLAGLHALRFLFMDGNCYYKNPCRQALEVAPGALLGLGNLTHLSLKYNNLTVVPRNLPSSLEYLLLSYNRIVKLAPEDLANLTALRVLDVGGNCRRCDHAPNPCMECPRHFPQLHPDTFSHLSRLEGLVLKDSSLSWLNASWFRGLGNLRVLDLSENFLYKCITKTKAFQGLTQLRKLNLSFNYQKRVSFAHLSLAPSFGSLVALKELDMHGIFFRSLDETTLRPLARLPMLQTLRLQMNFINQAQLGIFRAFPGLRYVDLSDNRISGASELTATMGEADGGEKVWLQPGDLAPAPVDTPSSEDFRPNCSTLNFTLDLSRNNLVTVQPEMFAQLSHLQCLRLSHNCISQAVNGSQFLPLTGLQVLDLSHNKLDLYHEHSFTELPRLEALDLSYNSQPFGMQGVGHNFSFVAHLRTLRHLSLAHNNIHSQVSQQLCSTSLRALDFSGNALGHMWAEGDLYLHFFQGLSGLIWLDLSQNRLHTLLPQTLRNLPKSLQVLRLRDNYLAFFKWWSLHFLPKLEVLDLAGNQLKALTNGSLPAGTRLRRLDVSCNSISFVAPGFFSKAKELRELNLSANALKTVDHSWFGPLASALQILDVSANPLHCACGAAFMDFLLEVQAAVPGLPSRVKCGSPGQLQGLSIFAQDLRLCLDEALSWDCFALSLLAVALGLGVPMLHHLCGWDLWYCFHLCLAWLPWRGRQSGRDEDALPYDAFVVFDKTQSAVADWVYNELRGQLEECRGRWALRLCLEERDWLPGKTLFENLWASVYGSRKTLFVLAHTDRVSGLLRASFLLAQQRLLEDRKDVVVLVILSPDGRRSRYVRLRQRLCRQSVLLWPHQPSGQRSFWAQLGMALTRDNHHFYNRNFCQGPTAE
UniProt Q9BVK6: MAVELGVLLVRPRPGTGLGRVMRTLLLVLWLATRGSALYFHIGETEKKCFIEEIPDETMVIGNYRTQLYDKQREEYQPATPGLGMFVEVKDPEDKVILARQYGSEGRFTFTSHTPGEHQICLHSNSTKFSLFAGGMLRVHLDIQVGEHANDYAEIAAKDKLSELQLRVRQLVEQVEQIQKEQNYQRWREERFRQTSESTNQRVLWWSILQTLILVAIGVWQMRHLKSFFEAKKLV
UniProt Q9Y320, whole entry, looked up: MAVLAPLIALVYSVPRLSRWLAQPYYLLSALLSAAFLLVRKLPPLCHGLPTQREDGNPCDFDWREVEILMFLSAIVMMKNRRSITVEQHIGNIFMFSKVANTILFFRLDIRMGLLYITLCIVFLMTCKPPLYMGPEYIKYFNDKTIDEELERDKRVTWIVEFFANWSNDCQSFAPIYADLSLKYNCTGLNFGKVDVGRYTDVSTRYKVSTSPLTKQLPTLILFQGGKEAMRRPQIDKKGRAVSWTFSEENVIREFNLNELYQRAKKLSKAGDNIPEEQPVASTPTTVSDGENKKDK
UniProt Q71RG4: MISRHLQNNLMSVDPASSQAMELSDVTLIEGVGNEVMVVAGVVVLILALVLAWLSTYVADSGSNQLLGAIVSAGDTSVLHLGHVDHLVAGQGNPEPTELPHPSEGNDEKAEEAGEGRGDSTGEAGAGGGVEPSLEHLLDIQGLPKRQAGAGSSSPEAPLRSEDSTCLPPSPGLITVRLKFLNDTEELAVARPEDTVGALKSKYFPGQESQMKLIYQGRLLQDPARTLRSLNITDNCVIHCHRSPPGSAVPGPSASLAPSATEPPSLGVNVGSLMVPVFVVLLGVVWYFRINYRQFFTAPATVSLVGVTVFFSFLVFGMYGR
UniProt Q8N511: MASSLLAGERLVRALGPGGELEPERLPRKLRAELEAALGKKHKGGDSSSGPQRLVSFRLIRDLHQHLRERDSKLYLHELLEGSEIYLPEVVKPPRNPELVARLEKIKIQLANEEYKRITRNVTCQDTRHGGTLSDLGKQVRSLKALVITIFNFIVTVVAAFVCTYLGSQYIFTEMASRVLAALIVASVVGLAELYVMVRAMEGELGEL
UniProt Q96JJ7: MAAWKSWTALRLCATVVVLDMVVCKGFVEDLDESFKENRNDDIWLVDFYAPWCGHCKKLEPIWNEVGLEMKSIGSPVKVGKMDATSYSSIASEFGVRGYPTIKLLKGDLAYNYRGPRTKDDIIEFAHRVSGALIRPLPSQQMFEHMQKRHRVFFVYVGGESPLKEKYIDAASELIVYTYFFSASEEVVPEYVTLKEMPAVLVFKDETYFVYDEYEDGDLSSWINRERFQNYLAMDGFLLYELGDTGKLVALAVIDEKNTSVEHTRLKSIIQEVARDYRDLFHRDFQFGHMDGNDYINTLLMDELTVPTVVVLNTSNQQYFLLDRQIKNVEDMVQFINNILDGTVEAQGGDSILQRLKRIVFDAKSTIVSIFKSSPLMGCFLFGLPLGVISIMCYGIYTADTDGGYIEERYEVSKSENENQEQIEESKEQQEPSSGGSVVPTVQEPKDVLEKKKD
UniProt O94886: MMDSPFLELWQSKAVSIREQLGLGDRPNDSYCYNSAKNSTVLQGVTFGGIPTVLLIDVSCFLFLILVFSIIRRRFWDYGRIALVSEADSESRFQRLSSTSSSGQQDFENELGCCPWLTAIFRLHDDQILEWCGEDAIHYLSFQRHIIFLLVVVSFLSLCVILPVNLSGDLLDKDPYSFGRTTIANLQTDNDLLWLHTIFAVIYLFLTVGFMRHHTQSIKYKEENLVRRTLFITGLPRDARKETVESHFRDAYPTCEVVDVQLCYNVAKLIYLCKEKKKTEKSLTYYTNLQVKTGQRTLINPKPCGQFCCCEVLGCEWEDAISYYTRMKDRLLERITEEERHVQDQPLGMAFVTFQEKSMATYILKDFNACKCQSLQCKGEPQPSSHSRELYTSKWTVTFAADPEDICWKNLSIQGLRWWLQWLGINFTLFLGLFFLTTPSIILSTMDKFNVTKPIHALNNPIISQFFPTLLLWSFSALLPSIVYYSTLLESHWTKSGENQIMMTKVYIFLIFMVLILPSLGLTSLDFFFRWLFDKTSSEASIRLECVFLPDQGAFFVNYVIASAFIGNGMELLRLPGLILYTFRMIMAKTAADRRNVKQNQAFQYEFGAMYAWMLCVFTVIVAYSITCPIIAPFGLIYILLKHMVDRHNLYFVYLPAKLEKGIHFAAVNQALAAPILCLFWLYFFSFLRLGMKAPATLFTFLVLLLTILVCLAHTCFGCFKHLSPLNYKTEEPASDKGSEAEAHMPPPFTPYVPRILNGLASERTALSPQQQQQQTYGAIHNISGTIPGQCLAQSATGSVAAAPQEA
UniProt O15321, whole entry, looked up: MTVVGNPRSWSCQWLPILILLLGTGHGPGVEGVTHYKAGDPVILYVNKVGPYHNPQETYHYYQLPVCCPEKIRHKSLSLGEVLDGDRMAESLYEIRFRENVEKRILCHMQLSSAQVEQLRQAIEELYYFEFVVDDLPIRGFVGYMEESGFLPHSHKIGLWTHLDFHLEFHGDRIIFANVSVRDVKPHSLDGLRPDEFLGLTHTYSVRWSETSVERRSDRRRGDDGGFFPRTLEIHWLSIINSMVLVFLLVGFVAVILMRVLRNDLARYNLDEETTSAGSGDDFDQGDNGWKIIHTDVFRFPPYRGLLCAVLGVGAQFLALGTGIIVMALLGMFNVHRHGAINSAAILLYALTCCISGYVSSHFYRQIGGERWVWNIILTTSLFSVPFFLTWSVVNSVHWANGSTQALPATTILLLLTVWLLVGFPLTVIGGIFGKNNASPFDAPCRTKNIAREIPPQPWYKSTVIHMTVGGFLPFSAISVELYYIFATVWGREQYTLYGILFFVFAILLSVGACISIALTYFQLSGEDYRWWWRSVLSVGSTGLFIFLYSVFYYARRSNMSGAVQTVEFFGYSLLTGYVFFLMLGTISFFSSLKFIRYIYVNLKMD
UniProt Q9BZW5, whole entry, looked up: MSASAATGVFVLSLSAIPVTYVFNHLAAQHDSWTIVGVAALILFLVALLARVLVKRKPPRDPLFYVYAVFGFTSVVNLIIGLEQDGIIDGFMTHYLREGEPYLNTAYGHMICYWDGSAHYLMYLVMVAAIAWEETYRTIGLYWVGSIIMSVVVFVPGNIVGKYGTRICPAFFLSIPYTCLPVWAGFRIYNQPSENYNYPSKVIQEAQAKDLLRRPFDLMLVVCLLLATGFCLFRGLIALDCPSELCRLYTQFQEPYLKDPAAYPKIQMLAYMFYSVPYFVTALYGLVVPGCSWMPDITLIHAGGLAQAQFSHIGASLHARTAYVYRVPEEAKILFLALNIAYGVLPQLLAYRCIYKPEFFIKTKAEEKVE
UniProt P28289: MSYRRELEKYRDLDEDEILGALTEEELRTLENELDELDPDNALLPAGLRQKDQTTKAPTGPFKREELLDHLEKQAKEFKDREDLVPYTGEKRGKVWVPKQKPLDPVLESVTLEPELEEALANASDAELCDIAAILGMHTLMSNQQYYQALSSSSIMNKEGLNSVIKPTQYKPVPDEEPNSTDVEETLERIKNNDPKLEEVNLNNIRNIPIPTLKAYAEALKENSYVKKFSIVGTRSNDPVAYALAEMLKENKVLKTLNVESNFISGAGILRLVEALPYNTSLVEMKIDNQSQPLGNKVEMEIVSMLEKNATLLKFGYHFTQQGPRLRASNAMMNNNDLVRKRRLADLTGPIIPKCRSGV
UniProt Q5SNT2: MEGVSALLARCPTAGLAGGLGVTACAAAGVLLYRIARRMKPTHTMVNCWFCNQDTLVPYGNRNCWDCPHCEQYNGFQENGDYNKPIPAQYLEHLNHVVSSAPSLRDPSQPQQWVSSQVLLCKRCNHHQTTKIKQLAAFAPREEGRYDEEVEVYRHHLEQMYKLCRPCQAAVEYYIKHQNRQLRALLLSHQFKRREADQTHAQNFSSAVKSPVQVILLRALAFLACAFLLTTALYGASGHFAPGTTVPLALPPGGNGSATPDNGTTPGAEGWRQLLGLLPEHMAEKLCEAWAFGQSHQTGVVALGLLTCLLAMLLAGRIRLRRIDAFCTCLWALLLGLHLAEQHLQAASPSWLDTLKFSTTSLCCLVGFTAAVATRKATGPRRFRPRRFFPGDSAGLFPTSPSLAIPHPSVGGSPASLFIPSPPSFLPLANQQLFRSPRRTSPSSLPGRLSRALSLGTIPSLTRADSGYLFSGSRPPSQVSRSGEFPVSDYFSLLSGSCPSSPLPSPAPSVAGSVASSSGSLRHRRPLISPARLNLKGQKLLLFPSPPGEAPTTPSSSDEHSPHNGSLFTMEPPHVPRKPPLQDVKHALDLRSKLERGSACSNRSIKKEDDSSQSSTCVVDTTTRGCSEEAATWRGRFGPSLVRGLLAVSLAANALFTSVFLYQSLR
UniProt Q9Y2S6, whole entry, looked up: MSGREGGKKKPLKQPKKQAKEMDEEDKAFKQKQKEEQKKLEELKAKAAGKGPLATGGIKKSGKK

Key:
Assay in all cases: log2 fold change, soluble protein after heating vs DMSO (PISA); higher = thermal stabilisation; K562 cells, 10 uM, 30 min; active = over 0.2 and 3.5 SD of the protein, either way, in both replicates (recomputed)
saracatinib = compound: CN1CCN(CCOc2cc(OC3CCOCC3)c3c(Nc4c(Cl)ccc5c4OCO5)ncnc3c2)CC1 [saracatinib]
In short: (§1)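 Soluble protein was quantified by TMTpro 16plex LC-MS/MS after channel sums were equalised. It was obtained as the supernatant after 21,000xg for 90 min from pooled aliquots of K562 cells (2×10^6 cells/mL, 10 μM compound, 30 min) heated for 3 min across 48°C-58°C and extracted in PBS with 0.5% NP-40 at 4°C. Thermal stability values are relative to control samples and come from duplicates. They are given as log2 fold changes.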

sotrastaurin = compound: CN1CCN(c2nc(C3=C(c4c[nH]c5ccccc45)C(=O)NC3=O)c3ccccc3n2)CC1 [sotrastaurin]
In short: as §1

alvocidib = compound: CN1CC[C@H](c2c(O)cc(O)c3c(=O)cc(-c4ccccc4Cl)oc23)[C@H](O)C1 [alvocidib]
In short: as §1

Tubastatin A = compound: CN1CCc2c(c3ccccc3n2Cc2ccc(C(=O)NO)cc2)C1 [Tubastatin A]
In short: as §1

[1] = compound: CNC(=O)C1=CC=CC=C1NC2=NC(=NC=C2Cl)NC3=C(C=C(C=C3)N4CCOCC4)OC
In short: as §1

defactinib = compound: CNC(=O)c1ccc(Nc2ncc(C(F)(F)F)c(NCc3nccnc3N(C)S(C)(=O)=O)n2)cc1 [defactinib]
In short: as §1

rucaparib = compound: CNCc1ccc(-c2[nH]c3cc(F)cc4c3c2CCNC4=O)cc1 [rucaparib]
In short: as §1

[2] = compound: CNc1nc(-c2ccc3c(N)n[nH]c3c2)cc(N2C[C@@H](C(=O)NC3CCCCC3)CC[C@H]2C)n1
In short: as §1

encorafenib = compound: COC(=O)N[C@@H](C)CNc1nccc(-c2cn(C(C)C)nc2-c2cc(Cl)cc(NS(C)(=O)=O)c2F)n1 [encorafenib]
In short: as §1

[3] = compound: COC(=O)[C@H](CCSC)NC(=O)C1=C(C=C(C=C1)NC[C@H](CS)N)C2=CC=CC=C2
In short: as §1

[4] = compound: COC1=CC=C(C=C1)CN2C=CC3=C2C=C(C=C3)C(=O)NO
In short: as §1

filanesib = compound: CON(C)C(=O)N1N=C(c2cc(F)ccc2F)S[C@@]1(CCCN)c1ccccc1 [filanesib]
In short: as §1

zotarolimus = compound: CO[C@H]1C[C@@H]2CC[C@@H](C)[C@@](O)(O2)C(=O)C(=O)N2CCCC[C@H]2C(=O)O[C@H]([C@H](C)C[C@@H]2CC[C@H](n3cnnn3)[C@H](OC)C2)CC(=O)[C@H](C)/C=C(\C)[C@@H](O)[C@@H](OC)C(=O)[C@H](C)C[C@H](C)/C=C/C=C/C=C/1C [zotarolimus]
In short: as §1

idasanutlin = compound: COc1cc(C(=O)O)ccc1NC(=O)[C@@H]1N[C@@H](CC(C)(C)C)[C@](C#N)(c2ccc(Cl)cc2F)[C@H]1c1cccc(Cl)c1F [idasanutlin]
In short: as §1

alisertib = compound: COc1cc(Nc2ncc3c(n2)-c2ccc(Cl)cc2C(c2c(F)cccc2OC)=NC3)ccc1C(=O)O [alisertib]
In short: as §1

[5] = compound: COc1cc2nc(-c3cc(F)ccc3O)nc(N[C@@H]3CNC[C@H]3C(C)(C)O)c2cc1OC
In short: as §1

gefitinib = compound: COc1cc2ncnc(Nc3ccc(F)c(Cl)c3)c2cc1OCCCN1CCOCC1 [gefitinib]
In short: as §1

[6] = compound: COc1cccc2cc(-c3nc([C@H]4CC[C@H](C(=O)O)CC4)n4ncnc(N)c34)[nH]c12
In short: as §1

lapatinib = compound: CS(=O)(=O)CCNCc1ccc(-c2ccc3ncnc(Nc4ccc(OCc5cccc(F)c5)c(Cl)c4)c3c2)o1 [lapatinib]
In short: as §1

pictilisib = compound: CS(=O)(=O)N1CCN(Cc2cc3nc(-c4cccc5[nH]ncc45)nc(N4CCOCC4)c3s2)CC1 [pictilisib]
In short: as §1

Measured: log2 fold change

TMEM43 (UniProt Q9BTV4)
inactive: saracatinib 0 | sotrastaurin -0.043 | alvocidib 0.014 | Tubastatin A 0.005 | [1] -0.003 | defactinib 0.055 | rucaparib 0.035 | [2] -0.026 | encorafenib 0.059 | [3] 0.01 | [4] -0.072 | filanesib -0.028 | zotarolimus 0.031 | idasanutlin 0.025 | alisertib -0.053 | [5] -0.064 | gefitinib -0.007 | [6] -0.015 | lapatinib 0.049 | pictilisib 0.031

TNFRSF1A (UniProt P19438)
inactive: saracatinib -0.22 | sotrastaurin 0.024 | alvocidib 0.077 | Tubastatin A 0.264 | [1] -0.123 | [2] 0.006 | filanesib 0.19 | zotarolimus 0.056 | [5] 0.004 | lapatinib -0.088 | pictilisib 0.189

TMX1 (UniProt Q9H3N1)
inactive: saracatinib -0.018 | sotrastaurin 0.012 | alvocidib -0.008 | Tubastatin A -0.023 | [1] -0.001 | defactinib 0.016 | rucaparib -0.017 | [2] -0.014 | encorafenib 0.007 | [3] 0.023 | [4] -0.034 | filanesib -0.025 | zotarolimus 0.001 | idasanutlin -0.005 | alisertib -0.079 | [5] 0.041 | gefitinib 0.038 | [6] 0.016 | lapatinib -0.013 | pictilisib 0.017

TLR9 isoform 4 (UniProt Q9NR96)
inactive: saracatinib -0.001 | sotrastaurin -0.008 | alvocidib 0 | Tubastatin A -0.045 | [1] -0.046 | defactinib -0.028 | rucaparib 0.017 | [2] 0.407 | encorafenib -0.076 | [3] 0.03 | filanesib -0.1 | zotarolimus 0.123 | idasanutlin 0.017 | alisertib 0.045 | gefitinib -0.068 | [6] 0.007

TMED9 (UniProt Q9BVK6)
inactive: saracatinib 0.014 | sotrastaurin 0.048 | alvocidib -0.07 | Tubastatin A -0.022 | [1] 0.064 | defactinib -0.023 | rucaparib -0.074 | [2] -0.052 | encorafenib 0.028 | [3] 0.007 | [4] -0.009 | filanesib -0.077 | zotarolimus 0.018 | idasanutlin -0.004 | alisertib -0.051 | [5] -0.008 | gefitinib 0 | [6] 0.013 | lapatinib 0.026 | pictilisib -0.009

Retrieved one by one from above (2):
TLR9 isoform 4 (UniProt Q9NR96)
inactive: saracatinib -0.001 | sotrastaurin -0.008 | alvocidib 0 | Tubastatin A -0.045 | [1] -0.046 | defactinib -0.028 | rucaparib 0.017 | [2] 0.407 | encorafenib -0.076 | [3] 0.03 | filanesib -0.1 | zotarolimus 0.123 | idasanutlin 0.017 | alisertib 0.045 | gefitinib -0.068 | [6] 0.007

TMED9 (UniProt Q9BVK6)
inactive: saracatinib 0.014 | sotrastaurin 0.048 | alvocidib -0.07 | Tubastatin A -0.022 | [1] 0.064 | defactinib -0.023 | rucaparib -0.074 | [2] -0.052 | encorafenib 0.028 | [3] 0.007 | [4] -0.009 | filanesib -0.077 | zotarolimus 0.018 | idasanutlin -0.004 | alisertib -0.051 | [5] -0.008 | gefitinib 0 | [6] 0.013 | lapatinib 0.026 | pictilisib -0.009

Additional results follow:

TMX2 (UniProt Q9Y320)
inactive: saracatinib -0.012 | sotrastaurin 0.026 | alvocidib -0.034 | Tubastatin A 0.029 | [1] 0.023 | defactinib -0.042 | rucaparib -0.025 | [2] 0.054 | encorafenib -0.005 | [3] 0.022 | [4] 0 | filanesib -0.131 | zotarolimus 0.025 | idasanutlin -0.049 | alisertib -0.043 | [5] -0.147 | gefitinib 0.018 | [6] 0.047 | lapatinib -0.07 | pictilisib 0.041

TLE4 isoform 3 (UniProt Q04727)
inactive: saracatinib -0.003 | sotrastaurin 0.002 | alvocidib 0.007 | Tubastatin A -0.034 | [1] -0.028 | defactinib -0.017 | rucaparib -0.024 | [2] -0.009 | encorafenib -0.014 | [3] 0.009 | [4] 0.029 | filanesib 0.004 | zotarolimus -0.015 | idasanutlin -0.05 | alisertib -0.04 | [5] 0.001 | gefitinib 0.017 | [6] 0.05 | lapatinib -0.024 | pictilisib 0.043

TMUB2 (UniProt Q71RG4)
inactive: saracatinib 0.147 | sotrastaurin -0.033 | alvocidib 0.065 | Tubastatin A -0.052 | [1] -0.03 | defactinib -0.032 | rucaparib 0.017 | [2] -0.013 | encorafenib 0.068 | [3] 0.031 | [4] 0.05 | filanesib -0.01 | zotarolimus -0.032 | idasanutlin 0.067 | alisertib 0.151 | [5] -0.039 | gefitinib 0.052 | [6] 0.122 | lapatinib 0.013 | pictilisib -0.042

TMEM199 (UniProt Q8N511)
inactive: saracatinib -0.009 | sotrastaurin 0.037 | alvocidib 0.094 | Tubastatin A -0.062 | [1] 0.092 | defactinib 0.029 | rucaparib -0.009 | [2] -0.038 | encorafenib -0.035 | [3] 0.063 | [4] -0.042 | filanesib -0.118 | zotarolimus -0.04 | idasanutlin -0.022 | alisertib -0.012 | [5] -0.025 | gefitinib 0.015 | [6] 0.045 | lapatinib 0.002 | pictilisib 0.084

TMX3 (UniProt Q96JJ7)
inactive: saracatinib -0.042 | sotrastaurin -0.064 | alvocidib 0.042 | Tubastatin A -0.004 | [1] 0.019 | defactinib -0.026 | rucaparib -0.009 | [2] -0.028 | encorafenib 0.001 | [3] 0.002 | [4] -0.072 | filanesib -0.051 | zotarolimus -0.011 | idasanutlin 0.014 | alisertib -0.081 | [5] 0.083 | gefitinib 0.001 | [6] 0.015 | lapatinib 0.007 | pictilisib -0.034

TMEM63A (UniProt O94886)
inactive: saracatinib 0.029 | sotrastaurin 0.004 | alvocidib 0.016 | Tubastatin A 0.017 | [1] 0.088 | defactinib -0.018 | rucaparib 0.073 | [2] 0.019 | encorafenib -0.041 | [3] 0.049 | [4] -0.003 | filanesib 0.003 | zotarolimus 0.047 | idasanutlin -0.029 | alisertib -0.106 | [5] 0.09 | gefitinib 0.057 | [6] 0 | lapatinib 0.056 | pictilisib 0.114

TM9SF1 (UniProt O15321)
inactive: saracatinib 0.018 | sotrastaurin 0.079 | alvocidib 0.029 | Tubastatin A 0.013 | [1] 0.029 | defactinib -0.139 | rucaparib 0.027 | [2] 0.001 | encorafenib 0.087 | [3] -0.028 | [4] -0.089 | filanesib 0.133 | zotarolimus 0.076 | idasanutlin -0.069 | alisertib -0.104 | [5] 0.231 | gefitinib 0.04 | [6] 0.125 | lapatinib 0.065 | pictilisib 0.174

TM6SF1 (UniProt Q9BZW5)
inactive: saracatinib -0.049 | sotrastaurin -0.003 | alvocidib -0.265 | Tubastatin A 0.117 | [1] 0.029 | defactinib 0.051 | [2] -0.045 | [3] 0.062 | [4] 0.077 | filanesib -0.113 | zotarolimus -0.362 | idasanutlin -0.19 | alisertib 0.073 | [5] 0.05 | gefitinib 0.071 | [6] 0.03 | lapatinib 0.047 | pictilisib -0.081

TMOD1 (UniProt P28289)
inactive: saracatinib -0.067 | sotrastaurin -0.112 | alvocidib 0.068 | Tubastatin A 0.066 | [1] -0.009 | defactinib -0.047 | rucaparib 0.093 | [2] 0.027 | encorafenib 0.15 | [3] 0.033 | [4] 0.003 | filanesib 0.028 | zotarolimus 0.041 | idasanutlin 0.117 | alisertib 0.002 | [5] -0.032 | gefitinib -0.007 | [6] -0.103 | lapatinib 0.083 | pictilisib -0.062

TMEM201 (UniProt Q5SNT2)
inactive: saracatinib 0.002 | sotrastaurin 0.051 | alvocidib 0.075 | Tubastatin A 0.009 | [1] -0.027 | [2] -0.026 | filanesib -0.09 | zotarolimus -0.067 | alisertib -0.004 | gefitinib 0.088 | [6] 0.058 | pictilisib 0.128

TMA7 (UniProt Q9Y2S6)
inactive: saracatinib -0.022 | sotrastaurin 0.003 | alvocidib 0.01 | Tubastatin A -0.006 | [1] -0.018 | defactinib -0.05 | rucaparib 0.035 | [2] -0.007 | encorafenib -0.069 | [3] -0.011 | [4] -0.001 | filanesib 0.03 | zotarolimus -0.046 | idasanutlin -0.009 | alisertib 0 | [5] 0.015 | gefitinib 0.042 | [6] 0.027 | lapatinib -0.131 | pictilisib -0.07
